From patent US11103562B2, “Composition comprising alkaline phosphatase for use in the treatment of arthritides” (AMRIF BV, priority 2017, dated 2021)

System: macrophages
Settings: 4x AP, 60 min post tracer injection

B1: AP: human recombinant placenta alkaline phosphatase (hRESCAP; TNO, Zeist), an ectophosphatase (protein, UniProt P05187 23-506, looked up)
Alkaline phosphatase, …: IIPVEEENPDFWNREAAEALGAAKKLQPAQTAAKNLIIFLGDGMGVSTVTAARILKGQKKDKLGPEIPLAMDRFPYVALSKTYNVDKHVPDSGATATAYLCGVKGNFQTIGLSAAARFNQCNTTRGNEVISVMNRAKKAGKSVGVVTTTRVQHASPAGTYAHTVNRNWYSDADVPASARQEGCQDIATQLISNMDIDVILGGGRKYMFRMGTPDPEYPDDYSQGGTRLDGKNLVQEWLAKRQGARYVWNRTELMQASLDPSVTHLMGLFEPGDMKYEIHRDSTLDPSLMEMTEAALRLLSRNPRGFFLFVEGGRIDHGHHESRAYRALTETIMFDDAIERAGQLTSEEDTLSLVTADHSHVFSFGGYPLRGSSIFGLAPGKARDRKAYTVLLYGNGPGYVLKDGARPDVTESESGSPEYRQQSAVPLDEETHAGEDVAVFARGPQAHLVHGVQEQTFIAHVMAFAACLEPYTACDLAPPAGTTD
[^18F]fluoro-PEG-folate uptake, Blood, Avg: 0.007 % ID/g | [^18F]fluoro-PEG-folate uptake, Plasma, Avg (arthritic rats, n = 4): 0.010 % ID/g
